This is an account of results in article PMC5664587 (Fluids and Barriers of the CNS, 2017).

Where two headings read alike, the source gives them in different places.

One data set is described as follows: in vivo. The conditions noted are these: rat, plasma, intravenous.
The next data set can be described thus: in vitro. Conditions: Sprague-Dawley, rat, brain homogenate; for fraction unbound at 6 h: pH 7.4, average fu,brain, average of all three concentration groups.
The conditions of data set [1]: average of all three concentration groups.
For data set [2] the following is noted: in situ rat brain perfusion, 61.7 µM, pH 7.4; cited from earlier work.
The test system of another data set is hBMEC. The conditions noted are these: human hBMEC; cited from earlier work.
The test system of data set [3] is MDCKII (Madin-Darby canine kidney II cells). Conditions: both A–B and B–A directions; cited from earlier work.
The conditions of data set [4]: rats, intravenous bolus; cited from earlier work.
A further data set deals with Caco-2 cells. The conditions noted are these: both A–B and B–A directions; cited from earlier work.
A further data set has as its system BBMEC. Conditions: bovine BBMEC; cited from earlier work.
The next data set relates to Pgp. The conditions noted are these: Caco-2 or Pgp transfected cell lines; cited from earlier work.
For data set [5] the following is noted: human subjects, cited from earlier work.

One may read the fraction unbound as the share of the substance not bound to proteins or other matrix. The low end stands for little free substance, the high end for much free substance. One may read the Papp as a coefficient for how fast a substance crosses the barrier.

`CC(C)NC[C@H](O)COc1ccc(CC(N)=O)cc1` [S-atenolol, S-(−)-atenolol]: the fraction unbound in the data set “in vivo” is ~1. This compound came in with a fraction unbound at 6 h in the data set “in vitro” of 0.88 ± 0.07. In the data set “in vitro” (pH 7.4, fu,brain, incubation concentration 0.5 µM, 6 h, 37 °C), this compound registered a fraction unbound at 6 h, 0.5 µM of 0.74 ± 0.04. In addition, the fraction unbound at 6 h, 1 µM in “in vitro” (pH 7.4, fu,brain, incubation concentration 1.0 µM, 6 h, 37 °C) stood at 0.8 ± 0.04. In data set [1], the “average fu,brain” value was determined as 0.875 ± 0.067.
With `CC(C)NCC(O)COc1ccc(CC(N)=O)cc1` (stereo not drawn) [atenolol], in data set [2], the “Kin (unidirectional transfer constant into brain)” value is reported as 1.8 µL/min/g brain. Also, the Papp is 9.78 ×10⁻⁶ cm/s in the data set with hBMEC, 0.13 × 10^−6 − 0.8 × 10^−6 cm/s in data set [3], 0.18 × 10^−6 − 11 × 10^−6 cm/s in the data set on Caco-2 cells and 48.5 ×10⁻⁶ cm/s in the data set with BBMEC. In data set [4], the “time of peak of Cu,brain” value is “around 10 min”. Further, the fraction unbound at 6 h in “in vitro” is 0.875 ± 0.067. Further, the Pgp substrate status result in the data set on Pgp was “not a Pgp substrate”. Further, the “decrease of AUC” value in data set [5] (by apple juice) is 81%; in [5] (by orange juice) it was 40%.
